Data set [1] relates to GST-CsTCP14 (Cucumis sativus (cucumber 9930)). Kind of data set: competition with a labelled probe. The conditions noted are these: LightShift Chemiluminescent EMSA kit, 20 uL reactions, 6.5% native polyacrylamide gel, pH and temperature not stated, recombinant protein, protein details: N-terminal GST (pGEX4T-1). For orientation: Mobility shift assays separate free from complexed probe on a gel.

The test system is the same in data set [2]. Nature of the data set: EMSA. The conditions noted are these: LightShift Chemiluminescent EMSA kit, 20 uL reactions, 6.5% native polyacrylamide gel; pH and temperature not stated; recombinant protein; protein details: N-terminal GST (pGEX4T-1); label: 5'-biotin (unlabeled as cold competitor).

This note sets out measurements from publication PMC6567058.

Construct, isoform or probe ends are uncertain for at least one entry. For part of these data: No signal at the amounts used counts as a negative.

For “TTGTTTTATTTTGGTAAATAAAGTTTTACA (double strand) [CsNBS-LRR mutant probe (GGTCCC to GGTAAA)]”, the binding result in data set [1] (unlabeled N2 against biotin-N1, shifted band reappeared, label: none (cold competitor)) is reported as “no binding”. On to “TTGTTTTATTTTGGTCCCTAAAGTTTTACA (double strand) [CsNBS-LRR (Csa6M344280.1) promoter probe]”, for which the binding result in data set [2] is “binds”; in data set [1] (unlabeled N1 in increasing amounts against biotin-N1, shift attenuated, label: 5'-biotin (unlabeled as cold competitor)) it was “binds”.
